The record followed here is article PMC5891081.

Results are given in words; binding and its absence hold for the method and conditions named. Binding seen in cells or lysates may run through a third protein. Binding can be weak; no strength is given. Tags and fused reporters may be left off the sequences shown.

Substrate in the test: CBP (exogenously overexpressed in HEK293 cells)
The experiment in a line: cross-linking + co-IP; DSP-mediated in vivo cross-linking in HEK293 cells overexpressing p300 or CBP and expressing RAD52-HA or GST-HA, with or without doxorubicin; immunoprecipitation with anti-p300 or anti-CBP antibodies.

B1: RAD52-HA (protein, UniProt P43351 1-418)
chain: MSGTEEAILGGRDSHPAAGGGSVLCFGQCQYTAEEYQAIQKALRQRLGPEYISSRMAGGGQKVCYIEGHRVINLANEMFGYNGWAHSITQQNVDFVDLNNGKFYVGVCAFVRVQLKDGSYHEDVGYGVSEGLKSKALSLEKARKEAVTDGLKRALRSFGNALGNCILDKDYLRSLNKLPRQLPLEVDLTKAKRQDLEPSVEEARYNSCRPNMALGHPQLQQVTSPSRPSHAVIPADQDCSSRSLSSSAVESEATHQRKLRQKQLQQQFRERMEKQQVRVSTPSAEKSEAAPPAPPVTHSTPVTVSEPLLEKDFLAGVTQELIKTLEDNSEKWAVTPDAGDGVVKPSSRADPAQTSDTLALNNQMVTQNRTPHSVCHQKPQAKSGSWDLQTYSADQRTTGNWESHRKSQDMKKRKYDPS
In the case of B1, the binding entry is recorded as “binds”.
